From patent publication US9682125B2, “Compositions and methods for treating cognitive deficits” (Case Western Reserve University, priority 2011, dated 2017)

Tested on: SAMP8 mice
Assay: Object recognition task
Assay type: in vivo
Details: vs saline-treated group
Method: All SAMP8 mice were treated with either saline or pramlintide beginning at 6 months of age. A subcutaneous ALZET® osmotic minipump (Model 2002, Durect Corp., Cupertino, Calif., USA) was surgically implanted into all mice as described previously^26. The osmotic mini-pump infused 0.24 mg/kg/day pramlintide acetate (0.6 mg/mL pramlintide, Amylin Pharmaceuticals, Inc., San Diego, Calif.) or saline at a rate of 0.5 μL/hr. Pumps were replaced with new refilled pumps every two weeks throughout the study duration. All animals were weighed weekly throughout the course of the experiment.
A total of 20 SAMP8 mice were used in the object recognition task. […] The mice were allowed to explore the environment for 10 minutes, during which their movements were recorded with a tracking system. […]
Videos recordings of the retention session were scored by an investigator blinded to the treatment groups. Object exploration, defined as the duration of time in which the head of the mouse faced less than ½ cm from the object, was measured during the training and retention sessions. The frequency of object exploration was also recorded, as well as the frequency and time spent rearing and grooming to determine general exploratory behavior. […] The recognition index was calculated as the percent of time spent exploring the novel object versus the total time spent exploring the objects.

With `CC[C@H](C)[C@H](NC(=O)[C@@H]1CCCN1C(=O)CNC(=O)[C@H](Cc1ccccc1)NC(=O)[C@H](CC(N)=O)NC(=O)[C@H](CC(N)=O)NC(=O)[C@H](CO)NC(=O)[C@H](CO)NC(=O)[C@H](Cc1c[nH]cn1)NC(=O)[C@@H](NC(=O)[C@H](CC(C)C)NC(=O)[C@H](Cc1ccccc1)NC(=O)[C@H](CC(N)=O)NC(=O)[C@H](C)NC(=O)[C@H](CC(C)C)NC(=O)[C@H](CCCNC(=N)N)NC(=O)[C@H](CCC(N)=O)NC(=O)[C@@H](NC(=O)[C@H](C)NC(=O)[C@@H]1CSSC[C@H](NC(=O)[C@@H](N)CCCCN)C(=O)N[C@@H](CC(N)=O)C(=O)N[C@@H]([C@@H](C)O)C(=O)N[C@@H](C)C(=O)N[C@@H]([C@@H](C)O)C(=O)N1)[C@@H](C)O)C(C)C)C(=O)N[C@@H](CC(C)C)C(=O)N1CCC[C@H]1C(=O)N1CCC[C@H]1C(=O)N[C@H](C(=O)N[C@@H](CC(N)=O)C(=O)N[C@H](C(=O)NCC(=O)N[C@@H](CO)C(=O)N[C@@H](CC(N)=O)C(=O)N[C@H](C(=O)N[C@@H](Cc1ccc(O)cc1)C(N)=O)[C@@H](C)O)C(C)C)[C@@H](C)O` [pramlintide] the “exploratory behavior, time spent grooming” value was “no difference” and the “exploratory behavior, time spent rearing” value was “no difference”.
